According to paper PMC9405727, “A Setmelanotide-like Effect at MC4R Is Achieved by MC4R Dimer Separation” (Biomolecules, 2022):
These are yes or no findings as the source states them, for the method shown. In cells and extracts the contact can be indirect. Some binding calls cover weakened binding; strength is not graded here.

Chains of the proteins cited; added tags and fusions are not shown.
UniProt P32245: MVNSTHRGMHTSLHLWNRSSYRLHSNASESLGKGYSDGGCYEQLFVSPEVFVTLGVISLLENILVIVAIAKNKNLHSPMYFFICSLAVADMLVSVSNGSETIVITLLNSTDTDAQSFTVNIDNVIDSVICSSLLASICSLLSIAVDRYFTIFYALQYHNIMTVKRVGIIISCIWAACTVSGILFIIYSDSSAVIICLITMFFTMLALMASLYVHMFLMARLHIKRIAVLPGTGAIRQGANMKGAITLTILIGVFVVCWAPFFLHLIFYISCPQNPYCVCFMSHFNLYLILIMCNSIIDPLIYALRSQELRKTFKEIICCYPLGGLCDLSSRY

Tests used:
[1] = target: Melanocortin 4 receptor, wild type (MC4R-WT) (UniProt P32245); test: FRET or BRET; donor saturation assay (DSA) by NanoBRET in HEK293 cells, to test the specificity of the homodimer interaction
[2] = target: Melanocortin 4 receptor, wild type (MC4R-WT) (UniProt P32245); test: FRET or BRET; NanoBRET in living HEK293 cells co-transfected with a NanoLuc fusion (donor; written as binder) and a HaloTag fusion (acceptor, ligand 618; written as target), NL/HT DNA ratio 1:5; BRET ratio in mBU after subtraction of the no-acceptor control; delta BRET = chimera minus MC4R-WT homodimer

- binding [1]: binds
- binding [2]: binds
Substance: Melanocortin 4 receptor, wild type (MC4R-WT) (from UniProt P32245 1-332)
